No constants are given. Whether binding was seen depends on the method and setting. In cells and extracts the contact can be indirect. Some results given as binding are weak or reduced against the parent protein; the word gives no strength. For some assays here: Where a sequence is shown, tags or fusion partners need not be part of it. Values belong to the binder of their own block, whether it stands above or below them.
Experiments:
[1] = target: GST-eIF4E2 (UniProt O60573); assay: pull-down
[2] = target: endogenous eIF4E2 (not stated (endogenous, cell line not named)) (UniProt O60573); assay: co-IP

Sequences of proteins named here, by UniProt entry; tags and fusion partners are left off.
UniProt O60573: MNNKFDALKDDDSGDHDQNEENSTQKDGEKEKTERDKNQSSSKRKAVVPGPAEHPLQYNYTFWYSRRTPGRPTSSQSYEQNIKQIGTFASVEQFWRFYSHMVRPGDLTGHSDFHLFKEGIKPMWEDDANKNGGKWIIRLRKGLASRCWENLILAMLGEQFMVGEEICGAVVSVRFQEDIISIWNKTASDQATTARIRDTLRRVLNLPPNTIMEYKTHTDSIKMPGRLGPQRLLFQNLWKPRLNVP

binding [1]: binds
B1: His-RBM38 (protein, UniProt Q9H0Z9 1-239)
chain: MLLQPAPCAPSAGFPRPLAAPGAMHGSQKDTTFTKIFVGGLPYHTTDASLRKYFEGFGDIEEAVVITDRQTGKSRGYGFVTMADRAAAERACKDPNPIIDGRKANVNLAYLGAKPRSLQTGFAIGVQQLHPTLIQRTYGLTPHYIYPPAIVQPSVVIPAAPVPSLSSPYIEYTPASPAYAQYPPATYDQYPYAASPATAASFVGYSYPAAVPQALSAAAPAGTTFVQYQAPQLQPDRMQ

binding [2]: binds
B2: endogenous RBM38 (protein, UniProt Q9H0Z9 1-239)
chain: B1 chain

Reference: doi:10.1101/2020.10.20.346569
